According to patent US20220411750A1, “CELL STRUCTURE, PRODUCTION METHOD THEREOF, AND METHOD FOR EVALUATING HEPATOTOXICITY OF SUBSTANCE TO BE TESTED” (TOPPAN INC., priority 2019, published 2022):

System: cell structure having a liver sinusoidal network produced using CMF (Example A)
Assay: Toxicity evaluation by ATP assay, cell structure of Example A (produced using CMF)
Conditions: Homo sapiens, read-out: IC50 Example A

SMILES: CCCCc1oc2ccccc2c1C(=O)c1cc(I)c(OCCN(CC)CC)c(I)c1 [Amiodarone]
- IC50: 14.1 µM
